Measurements published in US12509714B2, “Multiple heteroresistance to guide combination antibiotic regimens” (priority 2018, dated 2025).
Some entries share one result that the patent states for a list of compounds. Marks after values point to notes of the source that are not given here.

Legend:
[1] = system: pan-resistant Klebsiella pneumoniae isolate AR0040; assay type: cell-based
[2] = system: pan-resistant Klebsiella pneumoniae isolate AR0040; assay type: cell-based; conditions: single drug
Experimental: Time kills. Time kills were conducted. Briefly, 10^6 CFU/mL bacteria from an overnight culture were inoculated into 2 mL MH media in culture tubes (Globe Scientific) with and without antibiotic(s). The following concentrations were used: colistin 16 μg/mL, ceftazidime 128 μg/mL, fosfomycin 256 μg/mL (+25 mg/L Glucose-6-Phosphate (G6P)), ampicillin 128 μg/mL (FIG. 1e-h and Supplementary FIG. 2), fosfomycin 256 μg/mL (+25 mg/L G6P), trimethoprim 4 μg/mL sulfamethoxazole 76 μg/mL, amikacin 64 μg/mL, and piperacillin 256 μg/mL tazobactam 4 μg/mL (FIGS. 5C, D, G, H). Cultures were incubated at 37° C. shaking at 250 RPM for 1-48 hours. CFU were determined by serial diluting bacteria in PBS prior to plating on MH agar plates at various timepoints in the assay (0, 1, 2, 4, 6, 8, 10, 24, and 48 hour timepoints were used for time-kills). In FIG. 1E-H, serially diluted bacteria were also plated on MH agar plates with antibiotic added (colistin 16 μg/mL, ceftazidime128 μg/mL, fosfomycin 256 μg/mL(+25 mg/L G6P), and ampicillin 128 μg/mL). In FIGS. 5D, H culture tubes were imaged with a Canon EOS Rebel T3i.

In the case of `NCC[C@H](O)C(=O)N[C@@H]1C[C@H](N)[C@@H](O[C@H]2O[C@H](CN)[C@@H](O)[C@H](O)[C@H]2O)[C@H](O)[C@H]1O[C@H]1O[C@H](CO)[C@@H](O)[C@H](N)[C@H]1O` [amikacin], the “resistance status of AR0040 by PAP” value [1] is reported as “heteroresistant (classified as heteroresistant if the number of colonies that grew at 2 or 4 times the breakpoint were at least 0.0001% (1 in 10^6) of those that grew on antibiotic free plates)” and the “bacterial outgrowth observed by” value [2] is reported as no more than 24 h.
